Data: the supplement of paper PMC6411743
± gives the standard deviation of the averaged measurements. The list shows a part of the results, in another mix than the full data. Most values lie at the level of the controls, where differences are scatter.

The chains behind the UniProt entries cited, without tags or fusion partners. Where a name states a change or a piece, a line headed by the entry shows the natural chain unless it says otherwise.
UniProt Q9UPY8, whole entry: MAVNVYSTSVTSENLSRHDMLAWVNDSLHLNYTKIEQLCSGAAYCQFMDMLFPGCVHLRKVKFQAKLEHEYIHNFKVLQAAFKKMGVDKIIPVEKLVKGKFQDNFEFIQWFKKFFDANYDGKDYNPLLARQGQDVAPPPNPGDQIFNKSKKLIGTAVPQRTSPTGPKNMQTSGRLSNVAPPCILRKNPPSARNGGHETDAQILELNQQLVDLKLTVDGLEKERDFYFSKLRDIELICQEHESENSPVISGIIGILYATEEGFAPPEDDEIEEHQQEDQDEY
UniProt Q9UM22: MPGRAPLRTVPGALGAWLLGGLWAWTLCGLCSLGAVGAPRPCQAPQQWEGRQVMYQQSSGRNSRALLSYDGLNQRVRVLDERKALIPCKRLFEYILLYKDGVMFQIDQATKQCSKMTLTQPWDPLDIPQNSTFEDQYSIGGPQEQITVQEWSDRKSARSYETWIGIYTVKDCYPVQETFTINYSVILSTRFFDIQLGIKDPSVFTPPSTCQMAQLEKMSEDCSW
UniProt Q9UL03, whole entry: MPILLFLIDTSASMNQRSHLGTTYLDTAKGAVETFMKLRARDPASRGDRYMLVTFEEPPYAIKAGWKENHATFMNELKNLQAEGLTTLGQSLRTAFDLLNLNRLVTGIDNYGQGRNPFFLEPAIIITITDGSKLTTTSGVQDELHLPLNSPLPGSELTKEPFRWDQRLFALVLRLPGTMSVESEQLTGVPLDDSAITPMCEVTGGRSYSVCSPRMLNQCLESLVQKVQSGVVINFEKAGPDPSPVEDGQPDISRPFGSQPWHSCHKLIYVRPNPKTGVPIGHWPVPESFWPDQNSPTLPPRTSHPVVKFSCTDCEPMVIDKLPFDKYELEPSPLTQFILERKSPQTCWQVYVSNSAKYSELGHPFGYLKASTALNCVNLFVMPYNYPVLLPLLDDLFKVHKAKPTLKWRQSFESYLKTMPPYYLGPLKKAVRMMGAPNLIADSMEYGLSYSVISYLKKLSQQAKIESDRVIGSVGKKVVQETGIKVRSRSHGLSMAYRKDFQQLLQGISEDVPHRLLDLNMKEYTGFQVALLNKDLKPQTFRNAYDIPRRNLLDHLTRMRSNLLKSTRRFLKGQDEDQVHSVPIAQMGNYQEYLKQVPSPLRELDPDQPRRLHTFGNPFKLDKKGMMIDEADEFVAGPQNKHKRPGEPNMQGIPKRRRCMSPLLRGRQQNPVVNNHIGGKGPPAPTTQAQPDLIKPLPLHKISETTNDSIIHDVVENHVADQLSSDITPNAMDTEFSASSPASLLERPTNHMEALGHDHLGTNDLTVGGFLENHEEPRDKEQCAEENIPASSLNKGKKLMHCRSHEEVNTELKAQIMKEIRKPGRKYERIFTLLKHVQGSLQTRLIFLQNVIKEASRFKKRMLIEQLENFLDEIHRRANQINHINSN
UniProt Q9UQR1: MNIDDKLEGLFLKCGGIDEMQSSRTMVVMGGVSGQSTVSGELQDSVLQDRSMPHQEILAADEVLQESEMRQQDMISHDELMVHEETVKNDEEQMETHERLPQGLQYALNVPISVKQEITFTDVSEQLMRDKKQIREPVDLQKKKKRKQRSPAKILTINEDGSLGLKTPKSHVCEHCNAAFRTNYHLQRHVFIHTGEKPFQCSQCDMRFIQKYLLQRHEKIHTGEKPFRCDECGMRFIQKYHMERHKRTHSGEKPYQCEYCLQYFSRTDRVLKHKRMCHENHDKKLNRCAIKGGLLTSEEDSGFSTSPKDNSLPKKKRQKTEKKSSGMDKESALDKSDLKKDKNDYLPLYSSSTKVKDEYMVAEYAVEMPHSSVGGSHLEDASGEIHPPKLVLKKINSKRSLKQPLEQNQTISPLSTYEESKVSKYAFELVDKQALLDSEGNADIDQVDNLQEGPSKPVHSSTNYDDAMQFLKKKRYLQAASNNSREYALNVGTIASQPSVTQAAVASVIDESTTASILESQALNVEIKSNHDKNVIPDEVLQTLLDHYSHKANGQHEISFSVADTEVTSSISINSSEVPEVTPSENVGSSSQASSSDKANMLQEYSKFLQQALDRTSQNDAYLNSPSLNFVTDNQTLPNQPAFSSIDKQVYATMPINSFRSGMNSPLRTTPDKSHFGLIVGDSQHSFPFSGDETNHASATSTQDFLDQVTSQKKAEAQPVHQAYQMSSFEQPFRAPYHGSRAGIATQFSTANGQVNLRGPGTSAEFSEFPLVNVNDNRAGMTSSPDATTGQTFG
UniProt Q9UHB9: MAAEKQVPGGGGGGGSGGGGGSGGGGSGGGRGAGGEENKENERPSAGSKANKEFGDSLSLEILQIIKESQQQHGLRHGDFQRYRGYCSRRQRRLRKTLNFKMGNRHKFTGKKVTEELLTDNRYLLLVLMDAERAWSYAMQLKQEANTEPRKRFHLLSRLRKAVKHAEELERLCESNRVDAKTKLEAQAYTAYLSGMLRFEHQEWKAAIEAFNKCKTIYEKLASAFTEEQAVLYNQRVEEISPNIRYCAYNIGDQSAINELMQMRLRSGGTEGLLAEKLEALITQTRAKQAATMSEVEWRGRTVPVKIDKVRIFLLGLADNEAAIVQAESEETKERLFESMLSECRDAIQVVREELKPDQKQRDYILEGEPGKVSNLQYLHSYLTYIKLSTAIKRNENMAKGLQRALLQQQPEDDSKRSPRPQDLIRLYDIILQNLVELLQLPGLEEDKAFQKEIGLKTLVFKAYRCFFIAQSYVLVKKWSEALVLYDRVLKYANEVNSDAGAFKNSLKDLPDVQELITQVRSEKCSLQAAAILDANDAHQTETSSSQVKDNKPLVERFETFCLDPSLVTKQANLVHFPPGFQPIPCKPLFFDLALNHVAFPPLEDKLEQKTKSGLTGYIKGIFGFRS
UniProt Q9UNN5: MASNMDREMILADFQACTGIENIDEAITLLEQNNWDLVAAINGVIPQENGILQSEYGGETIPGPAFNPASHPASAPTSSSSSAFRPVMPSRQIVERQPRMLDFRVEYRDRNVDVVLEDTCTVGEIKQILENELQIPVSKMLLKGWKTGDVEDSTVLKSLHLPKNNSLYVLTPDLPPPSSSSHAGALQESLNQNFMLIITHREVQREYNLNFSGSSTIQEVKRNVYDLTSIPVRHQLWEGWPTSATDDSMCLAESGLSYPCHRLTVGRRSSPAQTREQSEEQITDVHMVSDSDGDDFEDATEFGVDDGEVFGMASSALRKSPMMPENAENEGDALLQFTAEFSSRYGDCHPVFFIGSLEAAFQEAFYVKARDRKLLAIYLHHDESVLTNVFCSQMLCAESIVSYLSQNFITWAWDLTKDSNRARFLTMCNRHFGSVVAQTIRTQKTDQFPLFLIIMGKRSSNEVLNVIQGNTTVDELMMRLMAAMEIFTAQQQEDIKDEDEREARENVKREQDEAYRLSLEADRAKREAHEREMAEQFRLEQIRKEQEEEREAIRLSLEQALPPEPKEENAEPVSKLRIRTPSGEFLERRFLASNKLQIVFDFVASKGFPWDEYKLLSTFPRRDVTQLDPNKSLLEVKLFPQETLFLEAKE
UniProt Q9UPP1: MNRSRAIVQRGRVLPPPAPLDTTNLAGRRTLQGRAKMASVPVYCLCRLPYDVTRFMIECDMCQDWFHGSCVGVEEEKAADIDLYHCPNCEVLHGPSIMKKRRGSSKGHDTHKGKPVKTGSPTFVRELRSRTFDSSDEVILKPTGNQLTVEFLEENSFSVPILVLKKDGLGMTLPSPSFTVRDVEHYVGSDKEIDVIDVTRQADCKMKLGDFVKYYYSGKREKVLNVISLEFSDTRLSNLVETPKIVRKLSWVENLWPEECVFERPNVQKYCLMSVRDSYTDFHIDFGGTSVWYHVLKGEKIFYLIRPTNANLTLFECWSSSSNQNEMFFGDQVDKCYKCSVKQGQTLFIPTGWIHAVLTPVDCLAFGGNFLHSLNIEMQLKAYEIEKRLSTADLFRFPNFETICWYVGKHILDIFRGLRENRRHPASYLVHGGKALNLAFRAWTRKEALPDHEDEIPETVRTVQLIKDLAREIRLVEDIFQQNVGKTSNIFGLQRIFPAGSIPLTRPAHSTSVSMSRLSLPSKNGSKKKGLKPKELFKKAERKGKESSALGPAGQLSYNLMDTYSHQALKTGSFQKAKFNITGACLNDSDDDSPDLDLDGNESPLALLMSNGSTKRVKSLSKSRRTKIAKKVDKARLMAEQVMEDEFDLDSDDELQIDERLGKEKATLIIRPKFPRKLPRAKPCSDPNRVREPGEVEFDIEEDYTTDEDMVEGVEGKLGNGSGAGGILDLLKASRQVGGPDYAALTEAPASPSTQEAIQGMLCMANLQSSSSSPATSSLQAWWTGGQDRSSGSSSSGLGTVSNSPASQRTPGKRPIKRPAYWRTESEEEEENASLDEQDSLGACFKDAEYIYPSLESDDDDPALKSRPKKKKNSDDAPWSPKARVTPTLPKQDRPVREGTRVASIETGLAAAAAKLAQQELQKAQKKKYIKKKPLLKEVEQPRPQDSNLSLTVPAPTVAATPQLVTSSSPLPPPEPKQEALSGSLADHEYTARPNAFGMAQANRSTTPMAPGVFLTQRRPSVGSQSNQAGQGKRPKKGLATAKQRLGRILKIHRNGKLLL
UniProt Q9UBS4: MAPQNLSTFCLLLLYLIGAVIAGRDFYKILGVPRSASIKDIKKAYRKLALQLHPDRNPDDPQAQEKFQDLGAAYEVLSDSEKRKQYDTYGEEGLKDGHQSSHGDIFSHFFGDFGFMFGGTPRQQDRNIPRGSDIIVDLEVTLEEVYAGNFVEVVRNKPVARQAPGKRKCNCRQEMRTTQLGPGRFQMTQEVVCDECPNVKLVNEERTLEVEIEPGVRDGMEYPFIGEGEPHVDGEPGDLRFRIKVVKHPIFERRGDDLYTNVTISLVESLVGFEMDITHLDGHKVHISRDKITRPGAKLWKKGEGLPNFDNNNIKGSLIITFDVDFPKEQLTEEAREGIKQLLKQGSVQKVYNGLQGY
UniProt Q9UBW8: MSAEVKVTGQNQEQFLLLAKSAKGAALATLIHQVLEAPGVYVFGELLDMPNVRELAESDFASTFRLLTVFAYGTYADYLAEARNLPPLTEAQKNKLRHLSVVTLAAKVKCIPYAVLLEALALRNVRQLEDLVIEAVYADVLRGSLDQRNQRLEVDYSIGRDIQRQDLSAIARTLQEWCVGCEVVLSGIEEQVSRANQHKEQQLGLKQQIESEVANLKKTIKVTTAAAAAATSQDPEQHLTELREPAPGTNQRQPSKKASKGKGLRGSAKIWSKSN
UniProt Q9Y263: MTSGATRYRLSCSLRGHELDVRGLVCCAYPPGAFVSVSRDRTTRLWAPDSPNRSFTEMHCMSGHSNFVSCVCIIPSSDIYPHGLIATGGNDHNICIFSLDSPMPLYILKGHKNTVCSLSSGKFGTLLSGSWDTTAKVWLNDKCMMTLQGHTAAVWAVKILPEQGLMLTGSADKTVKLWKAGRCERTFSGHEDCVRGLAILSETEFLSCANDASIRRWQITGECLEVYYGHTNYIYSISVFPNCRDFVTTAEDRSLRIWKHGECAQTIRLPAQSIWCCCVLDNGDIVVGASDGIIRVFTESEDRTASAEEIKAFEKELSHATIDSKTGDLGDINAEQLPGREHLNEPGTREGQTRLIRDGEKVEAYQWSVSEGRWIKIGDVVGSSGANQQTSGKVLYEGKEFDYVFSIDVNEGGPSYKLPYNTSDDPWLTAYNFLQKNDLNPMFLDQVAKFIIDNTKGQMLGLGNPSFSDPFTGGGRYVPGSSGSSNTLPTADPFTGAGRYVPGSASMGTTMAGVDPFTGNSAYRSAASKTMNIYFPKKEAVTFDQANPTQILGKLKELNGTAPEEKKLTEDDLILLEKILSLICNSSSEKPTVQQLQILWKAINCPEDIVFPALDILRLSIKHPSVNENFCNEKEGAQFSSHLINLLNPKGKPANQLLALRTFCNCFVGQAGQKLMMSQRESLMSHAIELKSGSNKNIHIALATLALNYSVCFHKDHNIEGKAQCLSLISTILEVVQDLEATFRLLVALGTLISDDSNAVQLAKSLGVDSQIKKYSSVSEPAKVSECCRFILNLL
UniProt Q9UJV9: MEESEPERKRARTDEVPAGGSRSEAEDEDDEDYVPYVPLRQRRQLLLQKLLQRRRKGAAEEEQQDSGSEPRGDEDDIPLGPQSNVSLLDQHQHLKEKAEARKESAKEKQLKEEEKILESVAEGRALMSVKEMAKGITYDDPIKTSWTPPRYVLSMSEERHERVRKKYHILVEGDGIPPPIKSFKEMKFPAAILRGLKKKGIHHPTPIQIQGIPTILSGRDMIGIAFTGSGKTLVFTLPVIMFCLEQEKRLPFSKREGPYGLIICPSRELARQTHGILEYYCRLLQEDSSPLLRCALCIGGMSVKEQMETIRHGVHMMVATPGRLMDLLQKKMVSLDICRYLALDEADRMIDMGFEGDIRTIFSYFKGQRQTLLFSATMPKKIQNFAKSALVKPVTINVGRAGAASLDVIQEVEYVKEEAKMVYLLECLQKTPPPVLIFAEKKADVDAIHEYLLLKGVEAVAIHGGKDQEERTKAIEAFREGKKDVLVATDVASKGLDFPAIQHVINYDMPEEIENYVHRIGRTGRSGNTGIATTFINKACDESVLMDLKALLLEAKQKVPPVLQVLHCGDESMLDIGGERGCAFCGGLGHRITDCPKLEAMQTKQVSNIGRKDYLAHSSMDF

Compound: Nc1ncnc2c1ncn2[C@@H]1O[C@H](COP(=O)(O)OP(=O)(O)OP(=O)(O)O)[C@@H](O)[C@H]1O [adenosine triphosphate]
Test: NP40-soluble protein abundance relative to vehicle (solubility fold change) (ratio); higher = more soluble protein in presence of ATP
Summary of the method: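 Each value is a fold change relative to the detergent-processed vehicle, calculated per replicate from vsn-normalised intensities. Jurkat crude lysate received eight concentrations (0.1 to 10 mM) for 10 min at room temperature and 3 min at 37 °C, then was solubilised in 0.8% NP40 with benzonase (60 min, 4 °C). The ultracentrifuged supernatant was TMT-labelled and run by LC-MS/MS in three independent experiments.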

Target	NP40-soluble protein abundance (concentration: 0.1mM)	NP40-soluble protein abundance (concentration: 0.5mM)
GGA2 (UniProt Q9UJY4)	1 ± 0.041	0.96 ± 0.032
HECA (UniProt Q9UBI9)	1.05 ± 0.026	1.05 ± 0.21
ARPP21 (UniProt Q9UBL0)	0.981 ± 0.025	0.957 ± 0.061
UniProt Q9ULD0	1.12 ± 0.11	1.1 ± 0.13
COPG2 (UniProt Q9UBF2)	0.995 ± 0.066	1.03 ± 0.02
PACSIN3 (UniProt Q9UKS6)	1.02 ± 0.029	1.008 ± 0.0037
UniProt Q9UPY8 and related entries	0.943 ± 0.087	0.959 ± 0.048
TUBE1 (UniProt Q9UJT0)	1.07 ± 0.031	0.976 ± 0.057
PA2G4 (UniProt Q9UQ80)	0.989 ± 0.047	1 ± 0.046
EPDR1 (UniProt Q9UM22)	1 ± 0.039	0.997 ± 0.048
UniProt Q9UL03 and related entries	1.01 ± 0.053	1.06 ± 0.059
HDAC6 (UniProt Q9UBN7)	1 ± 0.079	0.986 ± 0.071
ZNF219 (UniProt Q9P2Y4)	1.03 ± 0.12	1.07 ± 0.07
ZNF148 (UniProt Q9UQR1)	1.04 ± 0.018	1.02 ± 0.035
SRP68 (UniProt Q9UHB9)	1 ± 0.0054	1 ± 0.04
UniProt Q9UJU6 and related entries	0.98 ± 0.022	0.991 ± 0.03
UniProt Q9UK53-2|A0A0C4DFW2|Q9UK53 and related entries	0.99 ± 0.085	1.02 ± 0.073
UniProt Q9UJ83 and related entries	1.02 ± 0.071	0.995 ± 0.027
UniProt Q9P260 and related entries	1.01 ± 0.034	1.02 ± 0.041
ZMYM2 (UniProt Q9UBW7)	0.994 ± 0.021	0.974 ± 0.045

Target	NP40-soluble protein abundance (concentration: 0.1mM)	NP40-soluble protein abundance (concentration: 0.5mM)
SERGEF (UniProt Q9UGK8)	0.995 ± 0.1	1 ± 0.12
AP4E1 (UniProt Q9UPM8)	1.08 ± 0.017	1.07 ± 0.041
FAF1 (UniProt Q9UNN5)	1.03 ± 0.042	1.03 ± 0.063
NOL7 (UniProt Q9UMY1)	0.927 ± 0.026	1 ± 0.023
UniProt Q9P2D3 and related entries	0.953 ± 0.11	0.968 ± 0.056
ZNHIT2 (UniProt Q9UHR6)	0.919 ± 0.11	0.906 ± 0.086
GGT7 (UniProt Q9UJ14)	1.01 ± 0.13	0.879 ± 0.051
UniProt Q9UPP1 and related entries	1.02 ± 0.037	1.03 ± 0.029
TRMT6 (UniProt Q9UJA5)	1 ± 0.042	1 ± 0.042
PLXNA1 (UniProt Q9UIW2)	1.03 ± 0.062	0.998 ± 0.039
FARSA (UniProt Q9Y285)	1.01 ± 0.053	0.987 ± 0.023
DNAJB11 (UniProt Q9UBS4)	1.07 ± 0.073	1.05 ± 0.082
COPS7A (UniProt Q9UBW8)	0.995 ± 0.04	0.9963 ± 0.005
DUSP12 (UniProt Q9UNI6)	1.04 ± 0.098	1.07 ± 0.12
UniProt Q9UHW5 and related entries	1.06 ± 0.092	1.04 ± 0.12
UniProt Q9Y223 and related entries	1.03 ± 0.071	1 ± 0.025
UniProt Q9UBB6-2|Q9UBB6 and related entries	0.957 ± 0.025	0.888 ± 0.045
MAGED2 (UniProt Q9UNF1)	0.95 ± 0.01	0.956 ± 0.022
HECTD1 (UniProt Q9ULT8)	1.01 ± 0.015	1 ± 0.042
UniProt Q9UPQ9-1|Q9UPQ9 and related entries	0.984 ± 0.057	0.994 ± 0.053

Target	NP40-soluble protein abundance (concentration: 0.1mM)	NP40-soluble protein abundance (concentration: 0.5mM)
PCYOX1 (UniProt Q9UHG3)	1.05 ± 0.086	1.04 ± 0.011
PLAA (UniProt Q9Y263)	1.02 ± 0.043	1.01 ± 0.011
UniProt Q9UJV9 and related entries	1.09 ± 0.019	1.36 ± 0.036
RAB22A (UniProt Q9UL26)	0.962 ± 0.085	1 ± 0.068
ATXN10 (UniProt Q9UBB4)	0.951 ± 0.035	0.956 ± 0.0092
UniProt Q9UKM9 and related entries	0.967 ± 0.056	1.03 ± 0.1
NIPSNAP3A (UniProt Q9UFN0)	1.1 ± 0.14	1.06 ± 0.11
UniProt Q9ULH7-4|Q9ULH7-5	0.978 ± 0.043	1 ± 0.087
MRPS33 (UniProt Q9Y291)	0.942 ± 0.22	0.973 ± 0.24
UniProt Q9UHP3 and related entries	0.941 ± 0.083	0.913 ± 0.089
UniProt Q9UHL0 and related entries	1.02 ± 0.073	0.951 ± 0.18
NAGK (UniProt Q9UJ70)	1.01 ± 0.018	0.989 ± 0.071
LCMT1 (UniProt Q9UIC8)	1.04 ± 0.063	1.02 ± 0.08
GTF3C4 (UniProt Q9UKN8)	1.02 ± 0.026	1.05 ± 0.035
AASS (UniProt Q9UDR5)	1.06 ± 0.077	1.06 ± 0.067
AKAP11 (UniProt Q9UKA4)	1.01 ± 0.021	0.99 ± 0.035
DPP7 (UniProt Q9UHL4)	0.986 ± 0.046	0.975 ± 0.048
Q9UBK7-2|Q9UNT1-2 (UniProt Q9UNT1+Q9UBK7)	0.991 ± 0.046	0.984 ± 0.043
DCTN4 (UniProt Q9UJW0)	1.02 ± 0.018	1.03 ± 0.053

Quoted from the listing:
Value of DCTN4 (UniProt Q9UJW0) under NP40-soluble protein abundance (concentration: 0.5mM): 1.03 ± 0.053
Value of RAB22A (UniProt Q9UL26) under NP40-soluble protein abundance (concentration: 0.5mM): 1 ± 0.068
